{"source": "the supplement of paper PMC8728848", "experiment_in_all_cases": "glycan array binding signal (z-score within array); higher = stronger binding", "conditions_in_all_cases": "glycan notation: IUPAC condensed, linker removed", "key": {"GlcA(b1-3)GlcNAc": {"biological_target": "GlcA(b1-3)GlcNAc", "summary_of_the_method": "(§1)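 From the Consortium for Functional Glycomics database, 3228 arrays were curated, keeping only those whose protein sequence was available. Binding is given as a within-array Z-score averaged across arrays sharing a protein sequence and across linkers. Negative Z-scores can be read as non-binding.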"}, "GlcA(b1-6)Gal": {"biological_target": "GlcA(b1-6)Gal", "summary_of_the_method": "as §1"}, "[1]": {"biological_target": "GlcA3S(b1-3)Gal(b1-4)GlcNAc(b1-2)Man", "summary_of_the_method": "as §1"}, "[2]": {"biological_target": "GlcA3S(b1-3)Gal(b1-4)GlcNAc(b1-3)Gal(b1-4)Glc", "summary_of_the_method": "as §1"}, "[3]": {"biological_target": "GlcNAc(a1-3)Gal(b1-4)GlcNAc", "summary_of_the_method": "as §1"}, "[4]": {"biological_target": "GlcNAc(a1-4)Gal(b1-3)GlcNAc", "summary_of_the_method": "as §1"}, "[5]": {"biological_target": "GlcNAc(a1-4)Gal(b1-4)GalNAc", "summary_of_the_method": "as §1"}, "[6]": {"biological_target": "GlcNAc(a1-4)Gal(b1-4)GlcNAc", "summary_of_the_method": "as §1"}, "[7]": {"biological_target": "GlcNAc(a1-4)Gal(b1-4)GlcNAc(b1-3)Gal(b1-4)Glc", "summary_of_the_method": "as §1"}, "[8]": {"biological_target": "GlcNAc(a1-4)Gal(b1-4)GlcNAc(b1-3)Gal(b1-4)GlcNAc", "summary_of_the_method": "as §1"}, "[9]": {"biological_target": "GlcNAc(a1-4)Gal(b1-4)GlcNAc(b1-3)Gal(b1-4)GlcNAc(b1-3)Gal(b1-4)GlcNAc", "summary_of_the_method": "as §1"}, "[10]": {"biological_target": "GlcNAc(a1-4)Gal(b1-4)GlcNAc(b1-3)Gal(b1-4)[Fuc(a1-3)]GlcNAc(b1-3)Gal(b1-4)[Fuc(a1-3)]GlcNAc", "summary_of_the_method": "as §1"}, "[11]": {"biological_target": "GlcNAc(a1-6)Gal(b1-4)GlcNAc", "summary_of_the_method": "as §1"}, "[12]": {"biological_target": "GlcNAc(b1-2)Gal(b1-3)GalNAc", "summary_of_the_method": "as §1"}, "[13]": {"biological_target": "GlcNAc(b1-2)Man(a1-3)[GlcNAc(b1-2)Man(a1-6)]Man(b1-4)GlcNAc(b1-4)GlcNAc", "summary_of_the_method": "as §1"}, "[14]": {"biological_target": "GlcNAc(b1-2)Man(a1-3)[GlcNAc(b1-2)Man(a1-6)]Man(b1-4)GlcNAc(b1-4)[Fuc(a1-6)]GlcNAc", "summary_of_the_method": "as §1"}, "[15]": {"biological_target": "GlcNAc(b1-2)Man(a1-3)[GlcNAc(b1-4)][GlcNAc(b1-2)Man(a1-6)]Man(b1-4)GlcNAc(b1-4)GlcNAc", "summary_of_the_method": "as §1"}, "[16]": {"biological_target": "GlcNAc(b1-2)Man(a1-3)[GlcNAc(b1-4)][GlcNAc(b1-2)Man(a1-6)]Man(b1-4)GlcNAc(b1-4)[Fuc(a1-6)]GlcNAc", "summary_of_the_method": "as §1"}, "[17]": {"biological_target": "GlcNAc(b1-2)[GlcNAc(b1-4)]Man(a1-3)[GlcNAc(b1-2)Man(a1-6)]Man(b1-4)GlcNAc(b1-4)GlcNAc", "summary_of_the_method": "as §1"}, "[18]": {"biological_target": "GlcNAc(b1-2)[GlcNAc(b1-4)]Man(a1-3)[GlcNAc(b1-4)][GlcNAc(b1-2)Man(a1-6)]Man(b1-4)GlcNAc(b1-4)GlcNAc", "summary_of_the_method": "as §1"}, "[19]": {"biological_target": "GlcNAc(b1-2)[GlcNAc(b1-4)]Man(a1-3)[GlcNAc(b1-4)][GlcNAc(b1-2)[GlcNAc(b1-6)]Man(a1-6)]Man(b1-4)GlcNAc(b1-4)GlcNAc", "summary_of_the_method": "as §1"}, "[20]": {"biological_target": "GlcNAc(b1-2)[GlcNAc(b1-4)]Man(a1-3)[GlcNAc(b1-4)][GlcNAc(b1-2)[GlcNAc(b1-6)]Man(a1-6)]Man(b1-4)GlcNAc(b1-4)[Fuc(a1-6)]GlcNAc", "summary_of_the_method": "as §1"}, "[21]": {"biological_target": "GlcNAc(b1-2)[GlcNAc(b1-6)]Man(a1-6)[GlcNAc(b1-2)Man(a1-3)]Man(b1-4)GlcNAc(b1-4)GlcNAc", "summary_of_the_method": "as §1"}, "[22]": {"biological_target": "GlcNAc(b1-2)[GlcNAc(b1-6)]Man(a1-6)[GlcNAc(b1-2)Man(a1-3)]Man(b1-4)GlcNAc(b1-4)[Fuc(a1-6)]GlcNAc", "summary_of_the_method": "as §1"}, "[23]": {"biological_target": "GlcNAc(b1-2)[GlcNAc(b1-6)]Man(a1-6)[GlcNAc(b1-2)Man(a1-3)][GlcNAc(b1-4)]Man(b1-4)GlcNAc(b1-4)GlcNAc", "summary_of_the_method": "as §1"}, "[24]": {"biological_target": "GlcNAc(b1-2)[GlcNAc(b1-6)]Man(a1-6)[GlcNAc(b1-4)][GlcNAc(b1-2)Man(a1-3)]Man(b1-4)GlcNAc(b1-4)GlcNAc", "summary_of_the_method": "as §1"}, "GlcNAc(b1-3)Fuc": {"biological_target": "GlcNAc(b1-3)Fuc", "summary_of_the_method": "as §1"}, "GlcNAc(b1-3)Gal": {"biological_target": "GlcNAc(b1-3)Gal", "summary_of_the_method": "as §1"}, "[25]": {"biological_target": "GlcNAc(b1-3)Gal(b1-3)GalNAc", "summary_of_the_method": "as §1"}, "GlcNAc(b1-3)Gal(b1-4)Glc": {"biological_target": "GlcNAc(b1-3)Gal(b1-4)Glc", "summary_of_the_method": "as §1"}, "[26]": {"biological_target": "GlcNAc(b1-3)Gal(b1-4)GlcNAc", "summary_of_the_method": "as §1"}, "[27]": {"biological_target": "GlcNAc(b1-3)Gal(b1-4)GlcNAc(b1-2)Man(a1-3)[GlcNAc(b1-3)Gal(b1-4)GlcNAc(b1-2)Man(a1-6)]Man(b1-4)GlcNAc(b1-4)GlcNAc", "summary_of_the_method": "as §1"}, "[28]": {"biological_target": "GlcNAc(b1-3)Gal(b1-4)GlcNAc(b1-2)Man(a1-3)[GlcNAc(b1-3)Gal(b1-4)GlcNAc(b1-2)Man(a1-6)]Man(b1-4)GlcNAc(b1-4)[Fuc(a1-6)]GlcNAc", "summary_of_the_method": "as §1"}, "[29]": {"biological_target": "GlcNAc(b1-3)Gal(b1-4)GlcNAc(b1-2)[GlcNAc(b1-3)Gal(b1-4)GlcNAc(b1-6)]Man(a1-6)[GlcNAc(b1-3)Gal(b1-4)GlcNAc(b1-2)Man(a1-3)]Man(b1-4)GlcNAc(b1-4)GlcNAc", "summary_of_the_method": "as §1"}, "[30]": {"biological_target": "GlcNAc(b1-3)Gal(b1-4)GlcNAc(b1-3)Gal(b1-4)GlcNAc", "summary_of_the_method": "as §1"}, "[31]": {"biological_target": "GlcNAc(b1-3)Gal(b1-4)GlcNAc(b1-3)Gal(b1-4)GlcNAc(b1-2)Man(a1-3)[GlcNAc(b1-3)Gal(b1-4)GlcNAc(b1-3)Gal(b1-4)GlcNAc(b1-2)Man(a1-6)]Man(b1-4)GlcNAc(b1-4)GlcNAc", "summary_of_the_method": "as §1"}, "[32]": {"biological_target": "GlcNAc(b1-3)Gal(b1-4)GlcNAc(b1-3)Gal(b1-4)GlcNAc(b1-2)Man(a1-3)[GlcNAc(b1-3)Gal(b1-4)GlcNAc(b1-3)Gal(b1-4)GlcNAc(b1-2)Man(a1-6)]Man(b1-4)GlcNAc(b1-4)[Fuc(a1-6)]GlcNAc", "summary_of_the_method": "as §1"}, "[33]": {"biological_target": "GlcNAc(b1-3)Gal(b1-4)GlcNAc(b1-3)Gal(b1-4)GlcNAc(b1-2)[GlcNAc(b1-3)Gal(b1-4)GlcNAc(b1-3)Gal(b1-4)GlcNAc(b1-6)]Man(a1-6)[GlcNAc(b1-3)Gal(b1-4)GlcNAc(b1-3)Gal(b1-4)GlcNAc(b1-2)Man(a1-3)]Man(b1-4)GlcNAc(b1-4)[Fuc(a1-6)]GlcNAc", "summary_of_the_method": "as §1"}}, "note": "Some of the results follow."}
{"binder": "LlpA1 (Pseudomonas fluorescens), Q4KHC3 (protein) MGSSHHHHHHSSGLVPRGSHMAWIRYDFTDNGSSVLPARYYMAPNQYLQSPNKRFKLLFQADGNLALYDGAQLAWVADQNTPFTNVSKGNKKDPMMVFMNYGFVLDDPLRGRIWSTTPSDPTMGSREDASLRAFTQVQDDGNIVTVDTIPHWYAPNGRVFTPAVGAAMIIGGTTELVPGQFYSAGEHSLVFQGDGNLVVYGPNSSVIWATYTQNKGGVRCVMQEDGNLVIYAANNGVVWQSGTGGHPGATIRLQANGSFTIVTERPVWARFGYTPTIKPPRVFYPDHKWKTGSYTWNNVF", "values": [{"measurement": "glycan array binding signal (z-score)", "setting": "GlcA(b1-3)GlcNAc", "value": -0.144}, {"measurement": "glycan array binding signal (z-score)", "setting": "GlcA(b1-6)Gal", "value": 0.961}, {"measurement": "glycan array binding signal (z-score)", "setting": "[1]", "value": -0.031}, {"measurement": "glycan array binding signal (z-score)", "setting": "[2]", "value": -0.325}, {"measurement": "glycan array binding signal (z-score)", "setting": "[3]", "value": -0.576}, {"measurement": "glycan array binding signal (z-score)", "setting": "[4]", "value": -0.565}, {"measurement": "glycan array binding signal (z-score)", "setting": "[5]", "value": 0.679}, {"measurement": "glycan array binding signal (z-score)", "setting": "[6]", "value": 0.41}, {"measurement": "glycan array binding signal (z-score)", "setting": "[7]", "value": -0.071}, {"measurement": "glycan array binding signal (z-score)", "setting": "[8]", "value": -0.712}, {"measurement": "glycan array binding signal (z-score)", "setting": "[9]", "value": 0.547}, {"measurement": "glycan array binding signal (z-score)", "setting": "[10]", "value": 1.66}, {"measurement": "glycan array binding signal (z-score)", "setting": "[11]", "value": 0.29}, {"measurement": "glycan array binding signal (z-score)", "setting": "[12]", "value": -0.414}, {"measurement": "glycan array binding signal (z-score)", "setting": "[13]", "value": -0.57}, {"measurement": "glycan array binding signal (z-score)", "setting": "[14]", "value": -0.441}, {"measurement": "glycan array binding signal (z-score)", "setting": "[15]", "value": 0.104}, {"measurement": "glycan array binding signal (z-score)", "setting": "[16]", "value": -0.214}, {"measurement": "glycan array binding signal (z-score)", "setting": "[17]", "value": 0.978}, {"measurement": "glycan array binding signal (z-score)", "setting": "[18]", "value": -0.524}, {"measurement": "glycan array binding signal (z-score)", "setting": "[19]", "value": -0.345}, {"measurement": "glycan array binding signal (z-score)", "setting": "[20]", "value": -0.256}, {"measurement": "glycan array binding signal (z-score)", "setting": "[21]", "value": 0.068}, {"measurement": "glycan array binding signal (z-score)", "setting": "[22]", "value": -0.125}, {"measurement": "glycan array binding signal (z-score)", "setting": "[23]", "value": 0.061}, {"measurement": "glycan array binding signal (z-score)", "setting": "[24]", "value": -0.662}, {"measurement": "glycan array binding signal (z-score)", "setting": "GlcNAc(b1-3)Fuc", "value": -0.101}, {"measurement": "glycan array binding signal (z-score)", "setting": "GlcNAc(b1-3)Gal", "value": -0.357}, {"measurement": "glycan array binding signal (z-score)", "setting": "[25]", "value": 0.303}, {"measurement": "glycan array binding signal (z-score)", "setting": "GlcNAc(b1-3)Gal(b1-4)Glc", "value": -0.09}, {"measurement": "glycan array binding signal (z-score)", "setting": "[26]", "value": -0.439}, {"measurement": "glycan array binding signal (z-score)", "setting": "[27]", "value": -0.487}, {"measurement": "glycan array binding signal (z-score)", "setting": "[28]", "value": 0.23}, {"measurement": "glycan array binding signal (z-score)", "setting": "[29]", "value": 0.694}, {"measurement": "glycan array binding signal (z-score)", "setting": "[30]", "value": -0.81}, {"measurement": "glycan array binding signal (z-score)", "setting": "[31]", "value": 0.156}, {"measurement": "glycan array binding signal (z-score)", "setting": "[32]", "value": 1.46}, {"measurement": "glycan array binding signal (z-score)", "setting": "[33]", "value": 0.68}]}
